AC50 data for 64 compounds are collected here from PubChem BioAssay AID493014 (National Center for Advancing Translational Sciences (NCATS), 2011).

By AC50 is commonly meant the concentration giving half of the maximal activity seen.

A short description of this experiment: qHTS Assay to Find Inhibitors of Chronic Active B-Cell Receptor Signaling. Conditions: ABC-DLBCL IkBa-CBG/CBR reporter, luminescence ratio (green luciferase fused to IkBa over red control in TMD8 lymphoma cells), 4 h. Put shortly: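 Concentration-response series (up to 46 uM) were applied to TMD8 dual-reporter cells for 4 h at 37C with doxycycline. Green/red ratio, after filter-overlap correction, defined %Activity; red signal alone was normalised to basal cells and zero luminescence.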
On the technique in general: In qHTS, concentration-response curves come from the screen itself.

Where [1] appears, read: measured here: CBR red luminescence, cell number.
Setting [2] is: measured here: IkBa-CBG green luminescence.

The structures appear in SMILES notation. The list shows a part of the results. Further columns of the screen follow, without active or inactive calls. The list favours compounds with an active or inconclusive main result. Potencies come from curve fits of mixed quality, noted in brackets.

Take `c1csc(-c2nnc(COc3ccc4c(c3)OCO4)o2)c1`: under setting [1], the AC50 was 11.2 µM [falling, partial curve].
Consider `CC(C)=N/N=C(/c1ccc([N+](=O)[O-])cc1)C12CN3CN(CN(C3)C1)C2`, for which, under setting [1], the half-maximal activity concentration (AC50) is 2 µM [rising, partial curve].
On the same count and under the same terms, the same measure for `COc1ccc2sc(C)[n+](C)c2c1`: 20 µM [falling, partial curve, poor fit]; for `CCN(CC)CCCN(C(=O)Cn1nnc(-c2ccc(OC)c(OC)c2)n1)C(C(=O)NC(C)(C)C)c1ccc(F)cc1` (centres undefined): 35.5 µM [falling, single point]; for `CN(CC(=O)NCc1ccc(Cl)cc1)S(=O)(=O)c1cccc2cccnc12`: 0.411 µM [falling, full curve].
As for `Cc1nnc(NC(=O)C2CCCN2S(=O)(=O)c2ccc(Cl)cc2)s1` (centres undefined), the AC50 under setting [1] was 3.98 µM [rising, single point] and the AC50 under setting [2] is 5.62 µM [falling, single point].
For `C/C(=N/NC(=O)c1cc(-c2ccc(Br)s2)[nH]n1)c1ccco1`, the AC50 under setting [1] is 22.4 µM [rising, single point] and the AC50 under setting [2] was 35.5 µM [falling, single point].
Take `COc1ccc2oc(C(F)(F)C(F)F)cc(=O)c2c1`: the AC50 under setting [1] was 35.5 µM [rising, single point].
Regarding `CCn1c(CCNC(=O)c2cccs2)nnc1SCC(=O)Nc1nc(-c2ccccc2)cs1`, the half-maximal activity concentration (AC50) under setting [2] is 18.4 µM [rising, single point].
Regarding `Cc1nnc(NC(=O)c2nc(S(=O)(=O)Cc3ccccc3C)ncc2Cl)s1`, the AC50 under setting [1] is 1.41 µM [falling, full curve, poor fit].
Turning to `COc1ccc(N=N/C(=C\O)C(=O)c2ccco2)cc1`, the AC50 runs as follows: under setting [1], 3.16 µM [rising, full curve, poor fit]; under setting [2], 17.8 µM [falling, partial curve].
As for `O=C(Nc1ccccc1C(=O)N/N=C/c1ccco1)c1ccc(Cl)cc1`, the concentration at half-maximal activity (AC50) under setting [1] is 2.59 µM [falling, full curve].
Regarding `O=C1CC(Cc2ccc(Cl)cc2)C(=O)N1c1ccccn1` (centres undefined), the AC50 under setting [1] is 29.1 µM [rising, single point].
The same measure, in the same setting: the same measure for `COc1ccc(N2CCN(C(=O)C(CCSC)N=C3NS(=O)(=O)c4ccccc43)CC2)cc1` (centres undefined): 4.61 µM [rising, single point]; for `CCCCCOCC1CC(C/C(C)=N/Nc2nc(-c3ccccc3)cs2)C(=O)O1` (centres undefined): 2.51 µM [falling, full curve]; for `c1cncc(CNc2ncnc3ccc(-c4ccc5c(c4)OCO5)cc23)c1`: 20.6 µM [falling, single point].
Regarding `COc1ccc2cc(CCC(C)=O)ccc2c1`, under setting [1], the AC50 was 0.501 µM [rising, full curve, poor fit].
On the same count and under the same terms, the result for `CCCCN(CC)C(=O)c1ccc(Cl)c(Cl)c1` reads 6.51 µM [rising, full curve, poor fit]; that for `COc1ccc(-c2noc(C3CCCN(C(=O)CCc4ccccc4)C3)n2)cc1` (centres undefined), 2.06 µM [falling, partial curve, poor fit]; that for `Cc1ccc(CC(=O)Nc2nc3c(s2)CCCC3)cc1`, 0.411 µM [rising, full curve].
Turning to `O=C(O)c1ccc(COc2ccc3ccccc3c2)o1`, under setting [1], the AC50 is 2.51 µM [falling, partial curve].
Take `O=C(COC(=O)Cc1cccc(C(F)(F)F)c1)NCC1CCCO1` (centres undefined): under setting [1], the AC50 was 29.1 µM [falling, single point].
In the case of `COc1ccc(OC)c(NC(=O)CCN2CCN(c3ccccc3OC)CC2)c1`, the AC50 under setting [1] was 11.2 µM [rising, partial curve, poor fit].
`CCOC(=O)c1ccc(NC(=O)NCCc2ccccc2OC)cc1`: the AC50 under setting [1] was 0.447 µM [falling, full curve].
Turning to `Cn1c(=S)[nH]c2c(c1=O)C(C)(C)Cc1ccccc1-2`, the AC50 is 35.5 µM [falling, single point] under setting [1] and 10 µM [falling, partial curve] under setting [2].
As for `CC(=O)N(CCC(Cc1ccccc1)c1ccc2c(c1)OCO2)Cc1ccc(Cl)cc1` (centres undefined), the AC50 by setting is: under setting [1], 29.1 µM [falling, single point]; under setting [2], 20.6 µM [rising, partial curve, poor fit].
Regarding `CCSC1=N/C(=C\c2ccc3c(c2)OCO3)C(=O)S1`, the concentration at half-maximal activity (AC50) under setting [1] is 4.61 µM [rising, full curve, poor fit].
With `COc1ccc(-c2nnc(-c3cc4ccccc4oc3=O)o2)cc1`, under setting [1], the AC50 is 0.651 µM [rising, full curve, poor fit].
The same measure, in the same setting: the result for `O=C(CC1SC(N2CCCC2)=NC1=O)Nc1ccc(C(=O)Nc2ncccc2O)cc1` (centres undefined) reads 32.6 µM [rising, single point]; that for `Cc1oc2cc3oc(=O)c(CCC(=O)NCCN4CCOCC4)c(C)c3cc2c1C`, 35.5 µM [falling, single point]; that for `Cc1ccc(N/C=C/C(=O)c2ccccc2)cc1Br`, 3.55 µM [falling, partial curve].
Take `O=C(/C=C/Nc1ccc(F)cc1F)c1cccs1`: under setting [1], the AC50 was 16.4 µM [falling, partial curve].
Consider `COc1ccc(C(=O)Nc2ccc3[nH]c(-c4cccc(OC)c4)cc(=O)c3c2)cc1`, for which the half-maximal activity concentration (AC50) under setting [2] was 3.26 µM [falling, single point].
As to `CC1(C)CC(=O)C2=C(C1)OC(N)=C(C#N)C2c1ccccc1` (centres undefined), under setting [1], the AC50 is 20 µM [falling, single point].
Take `COc1cc(/C=N/Nc2ccccn2)ccc1O`: the AC50 under setting [1] is 0.355 µM [rising, partial curve, poor fit].
With `Cc1ccc2oc(=O)c(/C=C(\O)c3sc(C)nc3C)nc2c1`, the AC50 under setting [1] was 20.6 µM [falling, single point].
For the compound `O=C(NC(Cc1c[nH]c2ccccc12)C(=O)N/N=C/c1ccc(Br)cc1)c1cccs1` (centres undefined), the AC50 under setting [1] is 22.4 µM [falling, single point].
On the same count and under the same terms, the same measure for `CCOC(=O)c1sc(NC(=O)c2c(C)nn(Cc3ccccc3)c2C)cc1C`: 20.6 µM [falling, partial curve, poor fit]; for `O=c1[nH]c2ccccc2nc1C(F)(F)F`: 22.4 µM [falling, single point]; for `CN1CCN(c2ccc(NC(=O)c3ccc(-c4ccc(Cl)cc4)o3)cc2)CC1`: 11.2 µM [falling, partial curve].
In the case of `CC(=O)c1ccc(NC(=O)c2ccc(CSc3ccccc3)o2)cc1`, the AC50 under setting [1] is 29.1 µM [falling, single point].
`CCOC(=O)C1CCN(Cc2cc(C(C)(C)C)c(O)c(C(C)(C)C)c2)CC1`: the AC50 under setting [1] is 7.08 µM [falling, full curve, poor fit].
Still for that read-out and setting: the result for `COc1ccc(S(=O)(=O)Nc2ccc(-c3ccc4nnc(C)n4n3)cc2)c(OC)c1` reads 8.2 µM [rising, partial curve, poor fit]; that for `O=C(Nc1ccc(-c2noc(-c3cccs3)n2)cc1)c1cccnc1`, 23.1 µM [falling, single point].
For the compound `COc1cc(C=C2C(=O)c3ccccc3C2=O)ccc1O`, the AC50 under setting [1] was 35.5 µM [falling, single point].
`COC(=O)c1ccc(C(=O)OC)c(NC2=NS(=O)(=O)c3ccccc32)c1`: the AC50 under setting [1] was 6.51 µM [rising, single point].
Consider `Cc1ccc(-c2nc3scc(CCNC(=O)c4cccc(Br)c4)n3n2)cc1`, for which the AC50 under setting [1] is 17.8 µM [rising, single point].
For `O=C(N/N=C/c1cn(Cc2ccccc2)c2ccccc12)c1cc(O)cc(O)c1`, the concentration at half-maximal activity (AC50) under setting [1] was 12.6 µM [falling, partial curve].
Turning to `S=c1[nH]c2cc(Cl)ccc2s1`, under setting [1], the AC50 is 35.5 µM [rising, single point].
Turning to `COc1ccc(C(NC(=O)c2ccco2)c2ccc(OC)c(OC)c2)cc1` (centres undefined), under setting [1], the AC50 is 7.31 µM [rising, single point].
For the compound `O=C(CN1CCCC1)Nc1sc2c(c1C(=O)Nc1ccc(Br)cc1)CCC2`, under setting [1], the AC50 is 2.24 µM [rising, full curve, poor fit].
Turning to `O=C(NCCN1CCOCC1)c1cc(-c2ccccc2Cl)on1`, the AC50 under setting [1] is 35.5 µM [rising, single point].
Regarding `CCOC(=O)c1cn(CC)c2c(ccc3ccccc32)c1=O`, the AC50 under setting [1] was 5.62 µM [rising, single point].
For the compound `O=C(COc1ccc(Cl)cc1Cl)Nc1ccc(S(=O)(=O)NC2=NCCCCC2)cc1`, the AC50 under setting [1] was 14.6 µM [falling, single point].
Take `COc1cc(C=O)ccc1OCCOCCOc1ccccc1Cl`: the AC50 under setting [1] is 5.01 µM [rising, single point].
Turning to `COc1ccc(C(=O)Nc2ccc3ccccc3c2)cc1OC`, the AC50 under setting [1] is 11.2 µM [falling, partial curve, poor fit].
Turning to `COc1ccc(C)cc1-n1c(SCC(=O)NC2CC2)nc2ccccc2c1=O`, the AC50 under setting [1] was 5.8 µM [falling, partial curve, poor fit].
The same measure, in the same setting: the same measure for `Cc1ccc(S(=O)(=O)N(C)c2ccc(OC(=O)c3ccc(=O)[nH]c3)cc2)cc1`: 35.5 µM [falling, single point]; for `Cc1ccnc(Nc2nc(-c3ccccc3)cs2)c1`: 3.98 µM [falling, full curve]; for `COc1ccc(NC(=O)c2cccc(Oc3ccc([N+](=O)[O-])cc3Cl)c2)cc1`: 18.4 µM [falling, partial curve].
As to `Cc1c(C(=O)NN2CCOCC2)oc2c1ccc1ccccc12`, the AC50 under setting [1] is 0.562 µM [rising, full curve, poor fit].
For `COc1ccccc1CC(=O)N1CCC(n2nccc2NC(=O)C2CCOC2)CC1` (centres undefined), the AC50 under setting [1] was 35.5 µM [rising, partial curve, poor fit].
Turning to `Cc1cc(C(=O)NNC(=O)c2ccc(Cl)cc2)no1`, the concentration at half-maximal activity (AC50) under setting [1] is 22.4 µM [falling, single point].
On to `C=CCn1c(SCC(=O)c2cc(C)n(Cc3cccs3)c2C)nnc1-c1ccncc1`, for which the AC50 under setting [1] is 6.51 µM [rising, single point].
